From PubChem BioAssay AID624297 (National Center for Advancing Translational Sciences (NCATS), 2012)
Among all 340,000 compounds or so, about 6,200 (1.8%) were called active. This list was built around the results that the source calls inconclusive (neither active nor inactive); the mix of calls is not that of the screen. The call rests on the fitted dose curve; in most records, active means well fitted activation curve with a large enough effect; inconclusive means small, poorly fitted or top-dose-only effect; inactive means no such curve, though single readings can be large or run the other way. Potencies of inconclusive entries are doubtful fits and often do not repeat.

Experiment: A quantitative high throughput screen for small molecules that induce DNA re-replication in SW480 colon adenocarcinoma cells. Further: nearly all actives have a fitted effect of over 55% in size. On re-replication activation: % of control where 0% means no effect.
Settings: Hoechst DNA content imaging, 48 h; re-replication activation: at 46.1 µM (top of the series)
In short: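 Per well, 250 cells were exposed to pinned compound for 48 hr. Nuclear DNA was visualised with Hoechst (40 min, 37 C) and total object intensity recorded by fluorescence scanning.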
Potency means the concentration at half of the fitted maximal effect.

Structure (SMILES) | Potency | re-replication activation
CCO/C=C/C(O)(CNC(=O)c1ccc(C(C)(C)C)cc1)C(F)(F)F (stereo unspecified) | inconclusive: 2.59 µM [activator, full curve, poor fit] | 
C[C@H](CO)N1C[C@H](C)[C@@H](CN(C)Cc2ccc(-c3ccccc3)cc2)Oc2c(NC(=O)Cc3ccccc3)cccc2C1=O | inconclusive: 2.06 µM [activator, partial curve, poor fit] | 
Cc1cccc(CN2CCN(C(=O)c3ccccc3F)CC2)c1 | inactive | 
Cc1ccccc1/C=C/c1nc2ccccc2c(=O)[nH]1 | inconclusive: 20.6 µM [activator, single point] | 
CC(C)Oc1cccc(C(=O)C2CCCN(C(=O)c3cc(C(F)(F)F)[nH]n3)C2)c1 (stereo unspecified) | inactive | 
CC(C)c1onc(C(=O)Nc2ccc3c(c2)OCO3)c1[N+](=O)[O-] | inactive | 
COc1ccc(Br)cc1CNC(=O)CCCc1cn(C)c2ccccc12 | inconclusive: 16.4 µM [activator, partial curve, poor fit] | 
COc1cc2nc(C3CC3)n(NC(=O)c3ccc(Cl)cc3)c(=O)c2cc1OC | inconclusive: 23.1 µM [activator, single point] | 
Cc1cccc(NS(=O)(=O)c2cc([N+](=O)[O-])ccc2C)n1 | inconclusive: 20.6 µM [activator, partial curve, poor fit] | 
COc1ccc(C2Nc3ccccc3C(=O)N2Cc2ccco2)cc1COc1ccc(F)cc1 (stereo unspecified) | inconclusive: 16.4 µM [activator, partial curve, poor fit] | 
COc1ccc(NC(=O)c2cc(-c3ccncc3)nc3ccc(Br)cc23)cc1OC | inconclusive: 29.1 µM [activator, single point] | 
CCOc1ccc(-c2c(C(=O)N/N=C/c3ccsc3)nnn2-c2nonc2N)cc1 | inconclusive: 32.6 µM [activator, single point] | 
Cn1c2ccccc2c(=O)c2ccc(-c3ccc4c(c3)OCO4)cc21 | inconclusive: 29.1 µM [activator, single point] | 
CC(CCc1ccccc1)NC(=O)c1ccc(NC(=O)c2ccccc2)cc1 (stereo unspecified) | inconclusive: 18.4 µM [activator, single point] | 
CCN1C(=NCCCOC(C)C)N[C@@H](CCc2ccccc2)[C@H](C(=O)NCCCOC(C)C)[C@H]1C | inactive | 
O=C(/C=C/c1ccc2c(c1)OCO2)c1ccc(O)cc1O | inconclusive: 29.1 µM [activator, single point] | 
Cc1cccc2c1c1ccc3c(c1n2C)C(=O)C=CC3=O | inconclusive: 6.51 µM [activator, single point] | 
COc1ccccc1NC(=O)Cn1c(O)c(N=NC(=O)c2ccccc2O)c2ccccc21 | inconclusive: 29.1 µM [activator, single point] | 
COc1ccc(N2CCN(C(=O)c3cc(-c4cccs4)nc4ccccc34)CC2)cc1 | inactive | 
COc1ccc(NC(=O)Nc2cc(NC(=O)Nc3ccc(OC)cc3)c(C)nc2C)cc1 | inactive | 
CCCN(C(=O)c1cc(S(=O)(=O)N2CCN(CC)CC2)ccc1Cl)C1CCS(=O)(=O)C1 (stereo unspecified) | inactive | 
COC(=O)[C@@]1(Cc2ccc(F)cc2)[C@H]2c3cc(C(=O)N(C)C)n(Cc4nc5ccccc5[nH]4)c3C[C@H]2CN1C(=O)c1ccccc1 | inconclusive: 29.1 µM [activator, single point] | 

Structure (SMILES) | Potency | re-replication activation
C[n+]1ccccc1C1CCCC/C1=N\NC(N)=S (stereo unspecified) | inconclusive: 29.1 µM [activator, single point] | 
O=C(Nc1nnc(-c2ccncc2)o1)c1ccccc1 | inconclusive: 20.6 µM [activator, single point] | 
CCCn1c(NC(=O)c2ccccc2)nc2ccccc21 | inactive | 
Cc1ccccc1C(=O)Oc1cccc(Nc2ncnc3ccccc23)c1 | inactive | 
O=C(NNC(=O)c1ccc2ccccc2c1)Nc1ccc(F)cc1 | inconclusive: 2.91 µM [activator, single point] | 
O=C(NC(=S)Nc1ccccn1)c1ccc([N+](=O)[O-])cc1 | inconclusive: 18.4 µM [activator, single point] | 
O=C(CCCOc1ccccc1)N1CCN(S(=O)(=O)c2ccc(Cl)cc2)CC1 | inactive | 
CC(CCCN(C)C)C(Cc1ccccc1)c1ccccc1 (stereo unspecified) | inconclusive: 20.6 µM [activator, single point] | 
CCOc1ccc(CN(C)C(=O)CNC(=O)c2ccccc2)cc1 | inactive | 
Cc1cc(N2CCN(C)CC2)nc2ccc(NC(=S)NCc3cccs3)cc12 | inconclusive: 20.6 µM [activator, single point] | 
COc1ccc(NC(C)=O)cc1S(=O)(=O)NC1CCSc2ccccc21 (stereo unspecified) | inactive | 
CC(=O)OCC(COC(C)=O)OC(C)=O | inconclusive: 1.12 µM [activator, single point] | 
CN1CCN(C2Cc3cc(Cl)ccc3Sc3cc(F)ccc32)CC1 (stereo unspecified) | inconclusive: 20.6 µM [activator, single point] | 
CC(=O)OCC(=O)Nc1ccc(N=Nc2ccccc2)cc1 | inactive | 
COc1ccc(CCNC(=O)c2nn(C)c3c2CS(=O)(=O)c2ccccc2-3)cc1OC | active: 23.1 µM | 
CC(NC(=O)c1ccccc1NC(=O)CN1CCc2ccccc2C1)c1ccccc1 (stereo unspecified) | inconclusive: 14.6 µM [activator, single point] | 
COCCCNC(=O)Cn1c(=O)oc2cc(S(=O)(=O)N3CC(C)CC(C)C3)ccc21 (stereo unspecified) | inconclusive: 29.1 µM [activator, single point] | 
CN(CCCNC(=O)CSc1cc(=O)n(C)c2cc(Cl)ccc12)Cc1ccccc1 | inconclusive: 29.1 µM [activator, single point] | 
Cc1cc(O)c(C(=O)/C=C/c2ccc(C(C)C)cc2)c(=O)o1 | inactive | 
O=C(NO)c1ccc(C(=O)N(C2CCCCC2)C2CCCCC2)cc1 | inconclusive: 18.4 µM [activator, partial curve, poor fit] | 
CCCCCCSc1cc(-c2nc3ccc(C)cn3c2NCCCC)ccc1OC | inconclusive: 5.17 µM [activator, full curve, poor fit] | 
O=C(c1ccc2c(c1)OCO2)N1CCN(c2cccc(C(F)(F)F)c2)CC1 | inconclusive: 18.4 µM [activator, single point] | 

Structure (SMILES) | Potency | re-replication activation
CCC(C)OC(=O)C1=C(C)NC(=O)NC1c1ccc(F)cc1 (stereo unspecified) | inconclusive: 29.1 µM [activator, single point] | 
CCOC(=O)c1c(CSCc2ccccc2)oc2ccc(O)c(CN(C)C)c12 | inconclusive: 29.1 µM [activator, single point] | 
Cn1c2ccccc2n2c(=O)c(=O)n(CC(=O)c3ccc(Cl)cc3)nc12 | inactive | 
O=C(CNS(=O)(=O)c1ccc([N+](=O)[O-])cc1)N/N=C/c1ccc(O)cc1O | inconclusive: 6.51 µM [activator, full curve] | 
CN(C(=O)c1sc2nc(N3CCOCC3)c3c(c2c1N)CCCC3)c1ccccc1 | inconclusive: 29.1 µM [activator, single point] | 
COc1ccc(O)c(/C=N/NC(=O)c2ccc(CSc3nc(C)cc(C)n3)cc2)c1 | inconclusive: 1.84 µM [activator, single point] | 
Cc1ccc(/C=C2\SC(=S)N(C3CCS(=O)(=O)C3)C2=O)cc1 (stereo unspecified) | active: 0.0052 µM | 
N[C@@H](Cc1ccc(O)cc1)c1nnc([C@H](CO)NC(=O)C2CCNCC2)o1 | inconclusive: 6.51 µM [activator, single point] | 
Cc1ccc(-n2c(SCC(=O)N/N=C/c3ccccc3C(=O)O)nnc2-c2ccccc2)cc1 | inconclusive: 29.1 µM [activator, partial curve, poor fit] | 
COc1cc2c(cc1OC)CN(C(=O)Nc1ccccc1Cl)CC2 | inactive | 
COc1ccc2c3c(cccc13)C(=O)N(O)C2=O | inconclusive: 2.59 µM [activator, full curve, poor fit] | 
COc1ccccc1C(=O)c1c(C)c(CCC#N)n2ccccc12 | inactive | 
COc1cc2c(cc1OC)C(=O)N1[C@H]3c4cc(Cl)ccc4OC[C@@H]3[C@H](c3ccccc3)[C@]1(C)C(=O)N2 | inconclusive: 25.9 µM [activator, single point] | 
N#CC1=C(N)Oc2cc(N)ccc2C1c1cccnc1 (stereo unspecified) | inconclusive: 29.1 µM [activator, single point] | 
C[C@@H](C(=O)Nc1ccc(OC(F)F)c(Cl)c1)N1C(=O)C2CC=CCC2C1=O (stereo partly specified) | inactive | 
CCCc1cc(=O)oc2cc(C)cc(OCC(=O)NCCCN3CCCC3=O)c12 | inconclusive: 10.3 µM [activator, partial curve, poor fit] | 
COC(=O)C1=CN(c2cc(C)cc(C)c2)C=C(C(=O)OC)C1c1cccc(F)c1 | inconclusive: 8.2 µM [activator, partial curve] | 
CCOC(=O)CN(C)S(=O)(=O)c1ccc(-c2cc(C(=O)OC)sc2C(F)(F)F)cc1 |  | inconclusive: -9.93% [activator]
Cc1cnc(NC(=O)c2ccc3ncsc3c2)s1 | inconclusive: 32.6 µM [activator, partial curve, poor fit] | 
O=C(NCc1ccccc1CN1CCCC1)C1CCN(S(=O)(=O)c2ccc(Cl)cc2)CC1 | inconclusive: 29.1 µM [activator, single point] | 
CCCOc1ccc(CSCCNC(=S)Nc2ccccc2)cc1 | inactive | 
COc1ccc2c(c1)[C@H]1[C@H](CO2)[C@H](c2ccccc2)[C@]2(C)C(=O)Nc3cc(Cl)ccc3C(=O)N12 | inconclusive: 6.51 µM [activator, partial curve, poor fit] | 
